Laboratory results taken from article PMC3161067, “Combined SAXS/EM Based Models of the S. elongatus Post-Translational Circadian Oscillator and its Interactions with the Output His-Kinase SasA” (PLoS ONE, 2011).
These are yes or no findings as the source states them, for the method shown. Binding can be weak; no strength is given. For some assays here: Sequences can lack the tags named with a protein.

Columns and labels:
[1] = target: C-terminally truncated KaiC, KaiC-Δ489 (S. elongatus); assay: negative-stain EM; mixture of KaiC-Δ489, wt KaiB and wt SasA; 6,013 particles in 25 class averages; both purified
[2] = target: KaiB/ΔKaiC binary complex (S. elongatus); assay: native gel or EMSA; native PAGE band shift, PhastSystem, PhastGel Gradient 4-15% or 8-25%, Coomassie stain; both purified

| binding [1] | binding [2] | Binder |
| --- | --- | --- |
| binds |  | SasA (S. elongatus His kinase) (natural protein, UniProt Q06904 1-387, looked up, SasA, adaptive-response sensory His kinase, Synechococcus elongatus; N-terminal sensory domain is residues 1-97; its expression and purification are not described; also called full-length SasA; wt SasA) MGESLSPQALAQPLLLQLFVDTRPLSQHIVQRVKNILAAVEATVPISLQVINVADQPQLVEYYRLVVTPALVKIGPGSRQVLSGIDLTDQLANQLPQWLVQQEAFFADREPPEVNIPFTELGQPETPALQQADAFFQLQQQYADLSERTKFLEQVIALVAHDLRNPLTAALLAVDTIQIRSQSFSVATAKEMQGLCSLFDQARSQLREIERMIAEILEATRHSGESLRINPREVVFEPLLQQVLEQLHERWRSKQQQLITDVPGDLPTLYADPDRLRQVLVNLLDNAIKYTPPGGTITIAALHRTSQKVQISISDTGSGIPRDQLSVIFKNLVRLSRDSSQEGYGIGLSVCQRIVQAHFGRIWVASELGQGSTFHFTMPVYRYTMPC |
|  | binds | N-terminal KaiA domain (domain or fragment, UniProt Q79PF6 2-284) LSQIAICIWVESTAILQDCQRALSADRYQLQVCESGEMLLEYAQTHRDQIDCLILVAANPSFRAVVQQLCFEGVVVPAIVVGDRDSEDPDEPAKEQLYHSAELHLGIHQLEQLPYQVDAALAEFLRLAPVETMADHIMLMGANHDPELSSQQRDLAQRLQERLGYLGVYYKRDPDRFLRNLPAYESQKLHQAMQTSYREIVLSYFSPNSNLNQSIDNFVNMAFFADVPVTKVVEIHMELMDEFAKKLRVEGRSEDILLDYRLTLIDVIAHLCEMYRRSIPRET |
